The full ranking holds about 1,600 compounds; the median of “plate-normalized OD600 growth (mean of duplicates)” is about 0.31, and the lowest 2% start at about 0.23. Some of the results follow.
Test system: Escherichia coli BW25113
Assay: plate-normalized OD600 growth (mean of duplicates) (OD600 (normalized)); higher = more growth (less inhibition)
Settings: 10 µM
Protocol: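 E. coli BW25113 in LB (100 µl, 96-well, no shaking) was exposed to 10 µM of each compound (here the ChemBridge subset of a ~30,000-member library) and grown at 37°C for 24 h or 15°C for 48 h, in duplicate. Growth was read as OD600 and the duplicate ODs were normalized across screening plates to correct plate-to-plate variation.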

Compound | plate-normalized OD600 growth (temperature: 15°C, 48 h) | plate-normalized OD600 growth (temperature: 37°C, 24 h)
OCCN1CCN(Cc2cc(Br)cs2)CC1 | 0.242 | 0.6
OCCN1CCN(CC2CC=CCC2)CC1 (configuration not stated) | 0.228 | 0.604
CN(CC(=O)N1CCCC1=O)Cc1ccccc1 | 0.247 | 0.617
C=CCNc1nc(NCC=C)nc(OC)n1 | 0.25 | 0.627
Nc1nc(-c2ccco2)nc(-c2ccco2)n1 | 0.272 | 0.646
c1ccc(-c2nonc2-c2ccccc2)cc1 | 0.255 | 0.627
N#CC1=C(N)Oc2c([nH]c(=O)[nH]c2=O)C1c1cccc([N+](=O)[O-])c1 (configuration not stated) | 0.258 | 0.633
NS(=O)(=O)c1ccc(NC(=O)CCc2ccccc2)cc1 | 0.239 | 0.624
CCCn1c(SCCC(=O)O)nc2ccccc21 | 0.257 | 0.621
COc1ccc(N2C(=O)CC(N(C)Cc3ccccc3)C2=O)cc1 (configuration not stated) | 0.237 | 0.616
Cc1cccc2c1[nH]c1nc(NN)nnc12 | 0.277 | 0.611
Cc1c(C=O)c2ccccc2n1CC(N)=O | 0.258 | 0.64
O=c1[nH]c2nonc2nc1Nc1ccccc1 | 0.245 | 0.603
Cc1nc(-c2cccc(NC(=O)c3ccccc3)c2)cs1 | 0.24 | 0.606
CCN(CC)C(=O)C1CCCN(Cc2ccc(F)c(F)c2)C1 (configuration not stated) | 0.263 | 0.641
CC1CN(C/C=C/c2ccccc2)CC(C)O1 (configuration not stated) | 0.232 | 0.603
O=C(c1ccc(Cl)cc1)N1CCN(C(=O)c2ccco2)CC1 | 0.244 | 0.646
CC(=O)Nc1ccc(C(=O)Nc2ccccc2Cl)cc1 | 0.253 | 0.613
CC1CCCC(C)N1C(=O)c1ccc(Cl)cc1 (configuration not stated) | 0.256 | 0.611
NC(=O)c1sc2nc3c(cc2c1N)CCCC3 | 0.233 | 0.618
O=C(COc1ccc(Br)cc1)Nc1ccccc1Cl | 0.265 | 0.61
OC(COc1ccc(OCC(O)CN2CCCC2)cc1)CN1CCCC1 (configuration not stated) | 0.244 | 0.624

Looked up by structure from above, seven records:
Compound | plate-normalized OD600 growth (temperature: 15°C, 48 h) | plate-normalized OD600 growth (temperature: 37°C, 24 h)
Cc1cccc2c1[nH]c1nc(NN)nnc12 | 0.277 | 0.611
C=CCNc1nc(NCC=C)nc(OC)n1 | 0.25 | 0.627
Cc1c(C=O)c2ccccc2n1CC(N)=O | 0.258 | 0.64
OCCN1CCN(CC2CC=CCC2)CC1 (configuration not stated) | 0.228 | 0.604
O=C(c1ccc(Cl)cc1)N1CCN(C(=O)c2ccco2)CC1 | 0.244 | 0.646
CCCn1c(SCCC(=O)O)nc2ccccc21 | 0.257 | 0.621
NC(=O)c1sc2nc3c(cc2c1N)CCCC3 | 0.233 | 0.618

(further entries)

Compound | plate-normalized OD600 growth (temperature: 15°C, 48 h) | plate-normalized OD600 growth (temperature: 37°C, 24 h)
COc1cc(CNc2ccccc2C)cc2c1OCO2 | 0.245 | 0.615
Cc1ccsc1CN1CCN(CCO)CC1 | 0.268 | 0.629
CCN(CC)C(=O)C1CCCN(Cc2ccc(F)cc2F)C1 (configuration not stated) | 0.262 | 0.634
CC(=O)c1ccc(Oc2ccc(N)cc2)cc1 | 0.23 | 0.614
CC(Cc1c[nH]c2ccccc12)NC(=O)c1ccco1 (configuration not stated) | 0.253 | 0.637
CN1CCCN(Cc2coc3c(Cl)cc(Cl)cc3c2=O)CC1 | 0.245 | 0.631
O=C(NC1CCCCC1)c1ccc(Br)c(S(=O)(=O)N2CCCCC2)c1 | 0.25 | 0.611
N#CC1=C(N)SC(N)=C(C#N)C1c1ccc2c(c1)OCO2 | 0.234 | 0.629
O=C(Nc1cccc(Cl)c1)c1ccccc1C(=O)Nc1cccc(Cl)c1 | 0.26 | 0.649
O=C1CN(S(=O)(=O)CCOc2ccccc2)CC(=O)N1CCc1ccccc1 | 0.256 | 0.632
C#CCSc1nc2ccccc2n1C(=O)c1ccc(S(=O)(=O)N2CCCCC2)cc1 | 0.259 | 0.617
Nc1n[nH]c(-c2ccc(Br)cc2)n1 | 0.255 | 0.611
CSc1nnc2c(n1)OC(c1cc3c(cc1Cl)OCO3)Nc1ccccc1-2 (configuration not stated) | 0.241 | 0.61
CC(=O)Nc1cccc(NC(=O)c2cccc(C)c2)c1 | 0.248 | 0.601
COc1ccc(NC(=O)c2ccccc2Br)c(OC)c1 | 0.258 | 0.615
CCSc1nc(NN)c2c3c(sc2n1)CN(C)CC3 | 0.266 | 0.622
NS(=O)(=O)c1cccc(NS(=O)(=O)c2ccc(O)c([N+](=O)[O-])c2)c1 | 0.263 | 0.62
O=C(c1ccccc1[N+](=O)[O-])N1CCN(C(c2ccccc2)c2ccccc2)CC1 | 0.259 | 0.627
CCC(C)c1ccc(NC(=O)c2cccnc2)cc1 (configuration not stated) | 0.246 | 0.611
COc1cc(CN2CCN(c3cccc(C)c3C)CC2)cc(Br)c1O | 0.257 | 0.628
Clc1cccc(CN2CCN(c3ccccn3)CC2)c1 | 0.247 | 0.607
Cc1cc(C)c(NC(=O)C2CCCCN2C23CC4CC(CC(C4)C2)C3)c(C)c1 (configuration not stated) | 0.258 | 0.623

Look-ups from the entries so far.
N#CC1=C(N)SC(N)=C(C#N)C1c1ccc2c(c1)OCO2 – plate-normalized OD600 growth (temperature: 37°C, 24 h): 0.629
CC(=O)Nc1cccc(NC(=O)c2cccc(C)c2)c1 – plate-normalized OD600 growth (temperature: 15°C, 48 h): 0.248

The list continues:

Compound | plate-normalized OD600 growth (temperature: 15°C, 48 h) | plate-normalized OD600 growth (temperature: 37°C, 24 h)
COc1cccc(N2CCN(C3C4CC5CC(C4)CC3C5)CC2)c1 (configuration not stated) | 0.291 | 0.627
O=C(NCc1ccccn1)c1ccccc1F | 0.237 | 0.605
CN1CCOCC1.N=C=C1C(=S)NC2=C(C(=O)CCC2)C1Cc1ccccc1 (configuration not stated) | 0.259 | 0.623
O=C(O)CCCC(=O)Nc1ccc(I)cc1 | 0.25 | 0.607
O=[N+]([O-])c1ccc(CNC2CCCC2)cc1 | 0.254 | 0.621
CC(C)(CO)NC(=O)C(C)(C)Oc1ccc(Cl)cc1 | 0.247 | 0.623
Cc1ccccc1OC(=O)OCC(C)C | 0.257 | 0.61
CC(=O)c1ccc(N2CCN(Cc3coc4c(Cl)cc(Cl)cc4c3=O)CC2)cc1 | 0.244 | 0.607
C#CCSc1nc(C)cc(C)c1C#N | 0.24 | 0.613
COc1ccc(N2C(=O)CC(NCc3cccnc3)C2=O)cc1 (configuration not stated) | 0.256 | 0.621
COc1ccc2nc(-c3ccccc3)n(C)c2c1OC | 0.247 | 0.614
O=c1cc(Nc2ccc(Br)cc2)[nH]c(=O)[nH]1 | 0.252 | 0.618
CC1=CC(C)C2(COC(=O)Nc3ccccc3)COC(C)C1C2C (configuration not stated) | 0.249 | 0.611
CC(=O)Nc1ccc(-c2cc(-c3ccc(NC(C)=O)cc3)nc(-c3ccccc3)n2)cc1 | 0.246 | 0.587
CCOc1ccc(Nc2nc(-c3ccc(C)c(C)c3)cs2)cc1 | 0.248 | 0.605
C#CCSc1nc2c(cc1C#N)CCCCC2 | 0.256 | 0.612
O=C(O)CCC(=O)N1CCN(C(=O)c2ccco2)CC1 | 0.24 | 0.635
CC(=O)Nc1ccc(NC(=O)c2ccc(-c3ccccc3)cc2)cc1 | 0.263 | 0.632
Cc1ccc(NC(=O)c2ccc(Br)o2)c(C)c1 | 0.247 | 0.638
COc1ccc(/C=C(\C#N)c2nc(-c3ccc(F)cc3)cs2)cc1 | 0.228 | 0.615
COc1cc2c(cc1OC)C(c1ccccc1)NCC2 (configuration not stated) | 0.248 | 0.611
COc1cccc(NC(=O)c2cccc(I)c2)c1 | 0.244 | 0.596

Compound | plate-normalized OD600 growth (temperature: 15°C, 48 h) | plate-normalized OD600 growth (temperature: 37°C, 24 h)
CC1CCCC(C)N1C(=O)Cc1ccccc1 (configuration not stated) | 0.233 | 0.611
Cc1cc(=O)[nH]c2ccc([N+](=O)[O-])cc12 | 0.244 | 0.609
Fc1ccccc1OCCSc1ncnc2nc[nH]c12 | 0.258 | 0.613
Cc1ccccc1OCCCC(=O)Nc1ccc([N+](=O)[O-])cc1Br | 0.251 | 0.649
CN(C)c1ccc(/C=C/c2ccc3ccccc3n2)cc1 | 0.242 | 0.631
OC1CCN(Cc2ccc(Cl)cc2Cl)CC1 | 0.254 | 0.605
CN1C(=O)C(C)(C)N(C(=O)c2cccc([N+](=O)[O-])c2)c2ccccc21 | 0.253 | 0.643
Cc1[nH]nc2c1C(c1cc3c(cc1Cl)OCO3)C(C#N)=C(N)O2 (configuration not stated) | 0.253 | 0.616
COc1ccc(O)c(CN2CCCC(C)C2)c1 (configuration not stated) | 0.27 | 0.602
CC1(C)CC(n2c(NN)nc3c(c2=O)C2(CCCCC2)Cc2ccccc2-3)CCO1 (configuration not stated) | 0.255 | 0.631
Nc1nc2nc(-c3ccccc3)cc(=O)n2[nH]1 | 0.236 | 0.613
CC(=O)c1ccc(NS(=O)(=O)c2cc(S(=O)(=O)c3ccccc3)ccc2C)cc1 | 0.278 | 0.649
COc1ccc(N2C(=O)CC(N3CCN(c4ccc(F)cc4)CC3)C2=O)cc1 (configuration not stated) | 0.24 | 0.59
Brc1ccccc1OCCCN1CCOCC1 | 0.228 | 0.612
CCCCOc1ccc(/C=C(/C#N)c2nc3ccccc3[nH]2)cc1 | 0.261 | 0.613
COc1cc([N+](=O)[O-])c(C)cc1NC(C)=O | 0.262 | 0.63
CSc1ccc(CN2CCCN(C)CC2)cc1 | 0.259 | 0.649
O=C(O)C1Cc2c([nH]c3ccccc23)C(c2cccc(Br)c2)N1 (configuration not stated) | 0.264 | 0.636
COc1ccc(N(CCC#N)S(=O)(=O)c2cccc3nsnc23)cc1 | 0.248 | 0.614
COc1ccc(/C(C#N)=C/c2ccc3c(c2)OCO3)cc1OC | 0.247 | 0.613
CN(C)c1nc(-c2ccccc2O)nc2ccccc12 | 0.227 | 0.603
Brc1ccc(C2NCCc3c2[nH]c2ccccc32)cc1 (configuration not stated) | 0.233 | 0.6

Compound | plate-normalized OD600 growth (temperature: 15°C, 48 h) | plate-normalized OD600 growth (temperature: 37°C, 24 h)
Cc1onc(-c2ccccc2Cl)c1C(=O)N1CC(C)OC(C)C1 (configuration not stated) | 0.279 | 0.661
CCCOc1ccccc1/C=C/c1[nH]c(=O)[nH]c(=O)c1[N+](=O)[O-] | 0.251 | 0.62
C=CCc1c(C)nc(SCCCC)[nH]c1=O | 0.237 | 0.635
O=[N+]([O-])c1ccc(C2=CSC3=NCCN23)cc1 | 0.252 | 0.63
O=C1CC(N2CCN(c3ccc(F)cc3)CC2)C(=O)N1c1ccc(I)cc1 (configuration not stated) | 0.242 | 0.619
O=C1CC(c2ccc([N+](=O)[O-])cc2)=NN1c1cc(S(=O)(=O)O)ccc1Cl | 0.263 | 0.623
CC(c1ccccc1)C1CC(=O)N(c2ccccc2)C1=O (configuration not stated) | 0.255 | 0.602
CC(=O)Nc1cc2nc3ccccc3nc2cc1NC(C)=O | 0.235 | 0.656
Cn1c(SCC(=O)NC2CCCCC2)nc2sc3c(c2c1=O)CCCC3 | 0.267 | 0.648
Cc1cc(N)ccc1-c1ccc([N+](=O)[O-])cc1C | 0.27 | 0.624
COc1ccc(NCCNc2ccc(OC)cc2)cc1 | 0.231 | 0.6
CC1CN(C/C=C/c2ccccc2[N+](=O)[O-])CC(C)O1 (configuration not stated) | 0.252 | 0.609
CN(C)c1ccc(C(O)(c2ccccc2)c2ccccc2)cc1 | 0.249 | 0.624
COc1ccc2[nH]cc(CCNC(N)=O)c2c1 | 0.245 | 0.623
O=C(Nc1ccc(Br)cc1)c1cccc(S(=O)(=O)Nc2ccccn2)c1 | 0.244 | 0.586
CC(=O)c1ccc(N2CCN(CC3=CC[C@H]4C[C@@H]3C4(C)C)CC2)cc1 | 0.249 | 0.607
O=C(Nc1ccccc1F)c1ccc([N+](=O)[O-])o1 | 0.201 | 0.592
COCCCNC(=O)c1cccc(Cl)c1 | 0.249 | 0.608

— the supplement of paper PMC4371806
